{
  "source": "patent US20050130197A1",
  "about": "(priority 2003, published 2005)",
  "test": "peptide made by a vendor",
  "conditions": "545 um (so in the source)",
  "data": [
    {"substance": "TAMRA-labeled NPFF", "values": [
      {"measurement": "purity (crude or final not stated)", "result": 96, "unit": "% pure"}
    ]}
  ]
}
